US20240385173A1, “METHODS AND APPARATUS FOR TESTING IMMUNO-ONCOLOGY DRUGS AND BIOLOGICS USING MICROORGANOSPHERES” (Xilis, Inc., priority 2021, published 2024)
At least one structure is not confirmed: it was looked up by name or label, or the drawing left a doubt.

Test system: Patient-Derived MOSs from a single tumor biopsy
Assay: Multi-drug screen (27 drugs) on Patient-Derived MOSs from a single tumor biopsy
Format: cell-based, human
Conditions: FIG. 24; this particular tumor

With `Cc1ccc(Nc2nccc(N(C)c3ccc4c(C)n(C)nc4c3)n2)cc1S(N)(=O)=O` [Pazopanib] the “toxicity in panel of 27 drugs” value was “largest toxicity”.
